Experimental data from PubChem BioAssay AID540256 (National Center for Advancing Translational Sciences (NCATS), 2011).
Hit rate of the full screen: of about 300,000 compounds, about 3,700 (1.2%) were called active. The shares of active, inactive and inconclusive entries below differ from those in the screen. Calls come from the whole dose curve; tested in HEK293 cells. A potency beside an inconclusive call is a rough fit, not a confirmed value.

assay: qHTS for Inhibitors of binding or entry into cells for Lassa Virus; conditions: Lassa virus pseudotype entry inhibition, cell reporter; series mostly up to 37.9 µM; note: nearly all actives have a fitted effect of over 50% in size
Potency is the fitted concentration of half-maximal effect.

| Compound | Potency |
| --- | --- |
| Cc1ccc(S(=O)(=O)N(C)Cc2nc(-c3ccccc3)oc2C)cc1 | inactive |
| CCC(Oc1ccccc1)C(=O)N1CCC(C(N)=O)CC1 (stereo not given) | inconclusive: 12.6 µM [activator, single point] |
| Cc1cc(N2C(=O)CCC2=O)n(-c2ccccc2)n1 | inactive |
| O=C(N/N=C/c1c[nH]c2ccccc12)C1CC1(c1ccccc1)c1ccccc1 (stereo not given) | inconclusive: 20 µM [inhibitor, single point] |
| COc1ccccc1CNC(=O)C1CCN(S(=O)(=O)c2ccc3c(c2)CCCN3C(C)=O)CC1 | inactive |
| CC(C)c1ccc(NC(=O)CSc2nc3ccccc3nc2Cc2ccccc2)cc1 | inactive |
| CC(C)(Oc1ccc(Cl)cc1)C(=O)NCCN1C(=O)S/C(=C/c2cccnc2)C1=O | inactive |
| COc1cccc(C(=O)N(CN2CCCC2=O)c2cccc(Cl)c2)c1OC | inconclusive: 18.3 µM [inhibitor, partial curve, poor fit] |
| CCC(=O)N1CCN(c2ccc(NC(=S)NC(=O)c3ccc(OC)c([N+](=O)[O-])c3)cc2)CC1 | inconclusive: 35.5 µM [inhibitor, single point] |
| COc1ccc(-c2csc3ncnc(N4CCN(S(=O)(=O)c5ccc(C(C)=O)cc5)CC4)c23)cc1 | inconclusive: 10 µM [inhibitor, partial curve] |
| COC(=O)c1cc2oc(C)cc2n1CC(=O)Nc1ccc(C)c(C)c1 | inconclusive: 29.1 µM [activator, single point] |
| c1ccc(-c2nc(CSc3nnc(-c4cccs4)o3)cs2)cc1 | inactive |
| COc1cccc(N2CCN(C(=O)CCCCCn3c(=O)[nH]c4ccccc4c3=O)CC2)c1 | inconclusive: 35.5 µM [inhibitor, single point] |
| COC(CNS(=O)(=O)c1ccc(Cl)cc1)c1ccccc1 (stereo not given) | inactive |
| CCOP(=O)(Nc1cccc2oc(=O)c3ccccc3c12)OCC | inactive |
| O=C(Oc1cccc(Cl)c1)N1CCOCC1 | inconclusive: 35.5 µM [inhibitor, single point] |
| CC(NC(=O)CCn1c(=S)[nH]c2ccsc2c1=O)c1ccccc1 (stereo not given) | inconclusive: 35.5 µM [inhibitor, single point] |
| O=C(c1ccco1)c1cn(Cc2ccccc2)c2ccccc12 | inactive |
| Cc1cccc(-n2c(=O)c3ccccc3n(Cc3ccccc3)c2=O)c1 | inactive |
| CC1CCC(C(C)C)C(OCC(O)CN2CCCC(C)C2)C1 (stereo not given) | active: 5.62 µM |
| O=C(CCCOc1ccc(Cl)cc1Cl)N/N=C/c1ccccc1O | inconclusive: 12.6 µM [inhibitor, single point] |
| COc1ccccc1CCC(=O)NCCCn1ccc2ccccc21 | inconclusive: 5.62 µM [inhibitor, full curve] |
| Cc1cccc(OCCOCCSc2ncccn2)c1 | inconclusive: 7.94 µM [activator, partial curve, poor fit] |
| Cc1ccc(-n2nc3ccc(NC(=O)COc4ccccc4)cc3n2)cc1Cl | inconclusive: 3.16 µM [activator, single point] |

| Compound | Potency |
| --- | --- |
| CC(=O)Nc1ccc(S(=O)(=O)Nc2nccc(/C=C/c3ccc(Cl)cc3)n2)cc1 | inconclusive: 4.47 µM [inhibitor, partial curve, poor fit] |
| Cc1ccc(CNC(=O)C2CCN(Cc3nc(-c4cccc(Br)c4)oc3C)CC2)cc1 | inconclusive: 5.01 µM [inhibitor, single point] |
| Cc1nnsc1-c1c(C(=O)N2CCOCC2)c(C)nn1-c1ccccc1 | inactive |
| Cc1ccc(NC(=O)CN(C)CC(=O)Nc2cccc(F)c2)cc1[N+](=O)[O-] | inconclusive: 5.62 µM [inhibitor, full curve] |
| COc1ccccc1NC(=O)/C(C#N)=C/c1ccc(OCCN2CCOCC2)c(OC)c1 | inactive |
| O=C(COC(=O)c1ccco1)Nc1nc2c(F)c(F)c(F)cc2s1 | inactive |
| Cc1cc(C)cc(NC(=S)NC(=O)CCN2C(=O)c3ccccc3C2=O)c1 | inactive |
| O=C(NCc1ccco1)c1ccc2c(c1)N(Cc1c(F)cccc1Cl)C(=O)c1ccccc1S2 | inconclusive: 2 µM [inhibitor, full curve, poor fit] |
| COc1ccc(CN(Cc2cccn2C)C(=O)c2cc3cc(OC)ccc3[nH]2)cc1 | inconclusive: 0.891 µM [inhibitor, full curve, poor fit] |
| Cc1nc2c(OCc3ccccc3)cccn2c1CC#N | inconclusive: 0.326 µM [activator, full curve, poor fit] |
| COc1cc2c(cc1OC)C(C)N(C(=O)c1cc3c(C)cc(C)cc3[nH]1)CC2 (stereo not given) | inconclusive: 7.94 µM [inhibitor, partial curve, poor fit] |
| Cc1ccc(S(=O)(=O)N2CCCC(C(=O)N(Cc3cccs3)C3CC3)C2)cc1 (stereo not given) | inconclusive: 1.16 µM [inhibitor, single point] |
| COc1ccc(CS(=O)(=O)/C(Cl)=C(/Cl)C(=O)Nc2ccc(OC)nc2)cc1 | active: 6.31 µM |
| CC(O)(c1ccc(Cl)cc1)C(c1ccccc1)c1ccccn1 (stereo not given) | inactive |
| O=C(Nc1cc(Cl)ccc1Cl)c1cc2nc(-c3ccc4c(c3)OCO4)cc(C(F)(F)F)n2n1 | inactive |
| Cc1ccc2cc(CCNC(=O)C(=O)c3c[nH]c4ccccc34)c(=O)[nH]c2c1 | inconclusive: 3.16 µM [inhibitor, full curve] |
| Cc1ccc(NC(=O)CCc2nc3sc4c(c3c(=O)[nH]2)CCCC4)c(Br)c1 | inconclusive: 1 µM [inhibitor, partial curve, poor fit] |
| COc1ccc(NC(=O)CN2CCCCC2)cc1 | inconclusive: 0.224 µM [activator, full curve, poor fit] |
| COc1cc(CNc2nc(C)c([N+](=O)[O-])c(C)c2C#N)cc(OC)c1OC | inconclusive: 18.4 µM [inhibitor, single point] |
| CCOc1ccc(NC(=O)CN(C)C(=O)CCCOc2ccc(Cl)c(C)c2)cc1OCC | inconclusive: 35.5 µM [inhibitor, single point] |
| CCCCSc1nnc(-c2ccccc2NC(C)=O)c(=O)[nH]1 | inconclusive: 14.1 µM [inhibitor, single point] |
| O=C1C(Cl)=C(NCCN2CCOCC2)C(=O)c2ccccc21 | inconclusive: 10 µM [inhibitor, partial curve, poor fit] |
| CCCOc1ccc(CNC(=O)CCCn2nc(C)c3sc4ccccc4c3c2=O)cc1 | inconclusive: 35.5 µM [inhibitor, single point] |
| Cc1ccccc1NC(=O)CC1(c2ccc(N(C)C)cc2)C(=O)c2ccccc2C1=O | inconclusive: 20.6 µM [activator, partial curve, poor fit] |

| Compound | Potency |
| --- | --- |
| CCCSc1ncc(Cl)c(C(=O)Nc2c(C(=O)Nc3ccc(OC)cc3)oc3ccccc23)n1 | inactive |
| Cc1cccc(CNC(=O)c2ccc3oc(=O)n(Cc4ccccc4)c3c2)c1 | inconclusive: 7.94 µM [inhibitor, partial curve, poor fit] |
| O=C(CCC1=NS(=O)(=O)c2ccccc2N1)NC1CCCCCCC1 | inconclusive: 0.259 µM [activator, single point] |
| Cc1ccc(NC(=O)C2CC(=O)N(Cc3ccccc3)C2)cc1S(=O)(=O)N1CCCCCC1 (stereo not given) | inconclusive: 35.5 µM [inhibitor, single point] |
| O=C(O)c1ccc(CNCc2ccccc2Cl)s1 | inconclusive: 10 µM [activator, single point] |
| Cc1ccc(C(=O)OCc2cc(=O)n3ccsc3n2)s1 | inconclusive: 35.5 µM [activator, single point] |
| CCN(c1cccc(C)c1)S(=O)(=O)c1nnc(NC(=O)c2ccco2)s1 | inactive |
| CCOC(=O)c1cc2sccc2n1CC(=O)N1c2ccccc2CC1C (stereo not given) | inconclusive: 29.1 µM [inhibitor, single point] |
| C/C(=N\NC(=O)c1ccc(Cl)cc1)c1ccccn1 | active: 1.26 µM |
| Cc1ccccc1NC(=O)OCc1cccnc1Sc1ccc(Cl)cc1 | inconclusive: 1.58 µM [inhibitor, partial curve, poor fit] |
| CCn1c(SCC(N)=O)nnc1-c1ccco1 | inactive |
| CCN(CC)CCn1c(=N)n(CCO)c2ccccc21 | inactive |
| CC(C)(C)C(=O)NNC(=O)C1CC1(c1ccccc1)c1ccccc1 (stereo not given) | inconclusive: 31.6 µM [activator, single point] |
| CCOC(=O)N1CCN(CCC(=O)Nc2ccc(OC(F)(F)F)cc2)CC1 | inconclusive: 1.26 µM [activator, single point] |
| CCCOc1ccc(-c2nc3c(c(=O)[nH]c(=O)n3Cc3ccccc3)n2CCO)cc1OCC | inconclusive: 1.3 µM [inhibitor, partial curve] |
| Nc1nonc1-n1nnc(C(=O)N/N=C/c2ccc(Br)cc2)c1CSC1=NCCS1 | inconclusive: 35.5 µM [inhibitor, single point] |
| COc1cc2ccccc2ccc1=NO | inactive |
| COc1ccc(N(C(=O)CCl)C(C(=O)NC2CCCCC2)c2cccnc2)cc1 (stereo not given) | active: 12.6 µM |
| C=CCn1c(=O)c2ccccc2n2c(SC(C)C(N)=O)nnc12 (stereo not given) | inactive |
| COc1ccccc1N1CCN(C(CNC(=O)C(=O)NCc2ccc(F)cc2)c2cccnc2)CC1 (stereo not given) | inconclusive: 12.6 µM [inhibitor, partial curve, poor fit] |
| CN(C)S(=O)(=O)c1ccc(NC(=O)CN2CCCC2c2ccc3c(c2)OCCCO3)cc1 (stereo not given) | inconclusive: 12.6 µM [inhibitor, single point] |
| O=C(COc1ccccc1)N1CCN(C(=O)c2ccco2)CC1 | inconclusive: 4.11 µM [inhibitor, partial curve, poor fit] |

Given with bars between the fields: 3 of the compounds above
Compound | Potency
CCn1c(SCC(N)=O)nnc1-c1ccco1 | inactive
CCN(CC)CCn1c(=N)n(CCO)c2ccccc21 | inactive
CC(C)(C)C(=O)NNC(=O)C1CC1(c1ccccc1)c1ccccc1 (stereo not given) | inconclusive: 31.6 µM [activator, single point]
